Source: paper PMC3749136
No constants are given. Whether binding was seen depends on the method and setting. In cells and extracts the contact can be indirect. Some entries that bind do so weakly or less than the wild type. Tags and fused reporters may be left off the sequences shown.

Chains of the proteins cited; added tags and fusions are not shown.
UniProt P52332: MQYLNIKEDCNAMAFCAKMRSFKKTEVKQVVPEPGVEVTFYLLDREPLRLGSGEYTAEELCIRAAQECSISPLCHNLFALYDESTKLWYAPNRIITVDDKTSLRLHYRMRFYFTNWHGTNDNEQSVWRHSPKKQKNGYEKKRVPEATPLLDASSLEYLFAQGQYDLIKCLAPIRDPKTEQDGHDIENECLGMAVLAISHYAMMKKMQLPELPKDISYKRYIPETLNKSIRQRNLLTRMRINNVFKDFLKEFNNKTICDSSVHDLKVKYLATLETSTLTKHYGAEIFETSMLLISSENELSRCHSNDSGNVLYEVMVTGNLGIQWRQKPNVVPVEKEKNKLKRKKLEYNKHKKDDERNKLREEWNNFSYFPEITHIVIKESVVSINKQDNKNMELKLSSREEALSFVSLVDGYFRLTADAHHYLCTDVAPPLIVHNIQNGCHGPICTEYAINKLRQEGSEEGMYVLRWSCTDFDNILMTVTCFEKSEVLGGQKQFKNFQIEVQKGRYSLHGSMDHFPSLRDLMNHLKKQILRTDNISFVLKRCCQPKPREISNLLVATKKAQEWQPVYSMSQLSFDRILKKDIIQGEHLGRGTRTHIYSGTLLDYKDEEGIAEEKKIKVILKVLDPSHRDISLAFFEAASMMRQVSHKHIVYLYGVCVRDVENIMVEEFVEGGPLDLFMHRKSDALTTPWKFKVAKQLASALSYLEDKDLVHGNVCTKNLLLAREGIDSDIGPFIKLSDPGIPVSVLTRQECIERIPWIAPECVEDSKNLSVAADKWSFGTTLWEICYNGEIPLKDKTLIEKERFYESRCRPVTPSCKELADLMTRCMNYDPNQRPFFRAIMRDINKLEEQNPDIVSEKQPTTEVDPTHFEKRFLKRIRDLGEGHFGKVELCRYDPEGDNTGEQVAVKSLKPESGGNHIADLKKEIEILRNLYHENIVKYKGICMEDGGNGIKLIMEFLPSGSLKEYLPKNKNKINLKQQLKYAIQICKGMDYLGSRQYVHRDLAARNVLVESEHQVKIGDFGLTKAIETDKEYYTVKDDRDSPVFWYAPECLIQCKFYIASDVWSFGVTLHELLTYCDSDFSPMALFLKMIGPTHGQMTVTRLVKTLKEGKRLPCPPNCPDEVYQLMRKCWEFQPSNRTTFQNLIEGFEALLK
UniProt P52333: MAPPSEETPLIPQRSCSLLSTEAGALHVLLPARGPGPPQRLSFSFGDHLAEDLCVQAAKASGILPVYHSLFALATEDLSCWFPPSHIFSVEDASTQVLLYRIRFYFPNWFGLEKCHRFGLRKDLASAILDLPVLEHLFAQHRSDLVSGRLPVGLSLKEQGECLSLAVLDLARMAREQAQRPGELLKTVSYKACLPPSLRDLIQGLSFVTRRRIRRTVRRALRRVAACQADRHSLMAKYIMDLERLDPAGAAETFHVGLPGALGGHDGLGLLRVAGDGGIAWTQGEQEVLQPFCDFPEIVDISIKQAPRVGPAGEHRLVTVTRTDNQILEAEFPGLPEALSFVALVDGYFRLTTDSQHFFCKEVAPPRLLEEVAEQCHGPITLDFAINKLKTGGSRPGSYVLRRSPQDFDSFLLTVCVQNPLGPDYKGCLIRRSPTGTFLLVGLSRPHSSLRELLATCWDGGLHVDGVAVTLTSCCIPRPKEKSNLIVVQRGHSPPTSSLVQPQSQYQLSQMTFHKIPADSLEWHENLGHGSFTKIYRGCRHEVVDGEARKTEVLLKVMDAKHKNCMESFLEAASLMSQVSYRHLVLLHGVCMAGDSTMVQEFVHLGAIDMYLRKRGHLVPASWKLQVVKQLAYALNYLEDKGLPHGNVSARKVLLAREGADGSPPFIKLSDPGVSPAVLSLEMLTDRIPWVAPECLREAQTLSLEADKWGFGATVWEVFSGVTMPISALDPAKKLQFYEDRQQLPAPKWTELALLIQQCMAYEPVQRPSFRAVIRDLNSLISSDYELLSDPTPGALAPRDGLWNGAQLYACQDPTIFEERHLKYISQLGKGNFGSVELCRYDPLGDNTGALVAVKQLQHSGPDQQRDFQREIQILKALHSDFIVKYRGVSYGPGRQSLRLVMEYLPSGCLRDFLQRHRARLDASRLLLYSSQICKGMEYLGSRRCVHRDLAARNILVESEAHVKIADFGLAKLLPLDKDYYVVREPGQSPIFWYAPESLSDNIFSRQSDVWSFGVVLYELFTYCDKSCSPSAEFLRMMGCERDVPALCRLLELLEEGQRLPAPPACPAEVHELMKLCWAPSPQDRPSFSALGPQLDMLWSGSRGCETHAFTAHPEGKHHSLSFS
UniProt Q62120: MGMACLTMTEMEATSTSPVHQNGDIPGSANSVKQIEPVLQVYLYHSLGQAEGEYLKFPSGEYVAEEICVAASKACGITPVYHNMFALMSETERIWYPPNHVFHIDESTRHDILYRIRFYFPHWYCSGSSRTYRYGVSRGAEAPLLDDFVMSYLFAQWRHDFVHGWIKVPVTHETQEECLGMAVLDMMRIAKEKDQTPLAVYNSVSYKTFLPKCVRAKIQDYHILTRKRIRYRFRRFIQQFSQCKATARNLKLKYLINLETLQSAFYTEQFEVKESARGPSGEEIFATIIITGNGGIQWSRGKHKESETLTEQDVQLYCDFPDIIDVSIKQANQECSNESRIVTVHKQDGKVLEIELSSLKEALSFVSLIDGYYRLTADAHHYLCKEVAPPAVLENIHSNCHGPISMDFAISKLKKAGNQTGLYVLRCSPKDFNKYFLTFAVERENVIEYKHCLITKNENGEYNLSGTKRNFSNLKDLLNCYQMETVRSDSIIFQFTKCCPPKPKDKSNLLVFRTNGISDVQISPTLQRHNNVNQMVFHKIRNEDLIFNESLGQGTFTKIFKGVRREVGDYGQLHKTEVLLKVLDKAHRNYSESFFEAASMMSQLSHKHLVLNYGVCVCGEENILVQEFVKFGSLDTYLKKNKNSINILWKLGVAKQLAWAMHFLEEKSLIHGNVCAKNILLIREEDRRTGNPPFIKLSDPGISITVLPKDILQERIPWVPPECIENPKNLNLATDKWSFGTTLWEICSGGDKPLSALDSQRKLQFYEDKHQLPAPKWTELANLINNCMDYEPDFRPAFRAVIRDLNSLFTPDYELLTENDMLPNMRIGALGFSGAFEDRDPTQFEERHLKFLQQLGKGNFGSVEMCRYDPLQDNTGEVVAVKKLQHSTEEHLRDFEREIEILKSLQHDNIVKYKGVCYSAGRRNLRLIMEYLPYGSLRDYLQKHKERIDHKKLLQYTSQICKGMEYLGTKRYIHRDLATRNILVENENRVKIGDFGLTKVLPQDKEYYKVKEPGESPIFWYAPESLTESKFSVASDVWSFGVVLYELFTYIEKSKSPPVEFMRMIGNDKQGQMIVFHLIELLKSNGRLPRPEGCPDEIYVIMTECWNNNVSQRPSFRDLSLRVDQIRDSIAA
UniProt Q9R117: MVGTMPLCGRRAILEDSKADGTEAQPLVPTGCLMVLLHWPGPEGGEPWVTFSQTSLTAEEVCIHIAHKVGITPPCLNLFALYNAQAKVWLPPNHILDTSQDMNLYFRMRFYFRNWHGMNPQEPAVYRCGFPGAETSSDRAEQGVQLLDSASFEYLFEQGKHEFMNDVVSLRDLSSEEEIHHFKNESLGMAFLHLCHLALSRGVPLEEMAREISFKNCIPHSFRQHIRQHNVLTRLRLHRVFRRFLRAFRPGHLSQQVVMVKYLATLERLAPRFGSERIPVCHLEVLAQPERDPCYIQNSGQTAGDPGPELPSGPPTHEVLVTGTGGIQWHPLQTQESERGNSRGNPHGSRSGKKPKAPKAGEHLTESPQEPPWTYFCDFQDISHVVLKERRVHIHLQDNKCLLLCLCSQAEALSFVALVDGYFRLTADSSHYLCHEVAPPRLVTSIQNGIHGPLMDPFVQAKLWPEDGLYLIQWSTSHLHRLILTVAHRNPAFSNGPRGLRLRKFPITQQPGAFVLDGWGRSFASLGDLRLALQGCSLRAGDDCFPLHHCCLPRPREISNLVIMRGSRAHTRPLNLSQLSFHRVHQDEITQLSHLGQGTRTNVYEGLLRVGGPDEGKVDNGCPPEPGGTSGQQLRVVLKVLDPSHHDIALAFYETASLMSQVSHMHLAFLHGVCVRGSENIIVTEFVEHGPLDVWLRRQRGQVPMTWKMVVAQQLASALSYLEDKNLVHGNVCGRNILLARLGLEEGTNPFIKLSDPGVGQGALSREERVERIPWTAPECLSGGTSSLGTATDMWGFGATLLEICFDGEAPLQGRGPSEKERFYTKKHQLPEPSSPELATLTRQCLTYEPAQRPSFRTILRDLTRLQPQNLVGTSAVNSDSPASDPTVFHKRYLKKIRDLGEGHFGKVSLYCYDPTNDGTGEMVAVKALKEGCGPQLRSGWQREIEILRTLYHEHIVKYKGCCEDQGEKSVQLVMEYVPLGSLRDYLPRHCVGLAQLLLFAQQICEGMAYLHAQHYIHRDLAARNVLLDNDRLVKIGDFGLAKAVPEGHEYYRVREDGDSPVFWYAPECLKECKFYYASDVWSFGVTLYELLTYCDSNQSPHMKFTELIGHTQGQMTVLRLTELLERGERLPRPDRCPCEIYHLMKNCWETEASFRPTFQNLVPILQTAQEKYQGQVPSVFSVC

Assays:
[1] = target: T1, 2Flag-GFP-Shc-1 fusion protein (UniProt P98083); assay: co-IP; 293T cells co-transfected with Myc-SOCS5 and Flag-Shc-1; MG132 and pervanadate before lysis in 1% NP-40 buffer; anti-Flag M2 immunoprecipitation, blot with anti-SOCS5
T1 sequence (chain, phosphotyrosine at 317 (shown by a phospho-specific antibody for Shc-1-Tyr317)): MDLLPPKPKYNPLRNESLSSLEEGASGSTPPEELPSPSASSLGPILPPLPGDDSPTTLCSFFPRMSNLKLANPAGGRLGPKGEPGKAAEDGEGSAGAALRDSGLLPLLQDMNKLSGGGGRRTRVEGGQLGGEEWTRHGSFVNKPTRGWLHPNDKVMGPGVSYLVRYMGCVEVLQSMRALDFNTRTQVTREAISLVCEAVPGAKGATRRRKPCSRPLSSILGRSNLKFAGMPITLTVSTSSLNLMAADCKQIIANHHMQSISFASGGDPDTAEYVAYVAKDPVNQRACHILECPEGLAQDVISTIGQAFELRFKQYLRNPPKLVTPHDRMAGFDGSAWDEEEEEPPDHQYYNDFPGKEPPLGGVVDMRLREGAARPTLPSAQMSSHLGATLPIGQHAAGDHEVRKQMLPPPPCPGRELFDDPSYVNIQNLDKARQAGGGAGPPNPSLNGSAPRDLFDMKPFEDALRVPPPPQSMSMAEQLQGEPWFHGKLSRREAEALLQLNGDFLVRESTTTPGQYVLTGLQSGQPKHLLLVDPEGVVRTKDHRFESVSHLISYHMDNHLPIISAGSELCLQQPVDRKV

Flag-tagged JAK1 (mouse) = Flag-tagged JAK1 (mouse) (UniProt P52332); assay: co-IP; 293T cells co-transfected with Myc-SOCS5 and Flag-JAK; KALB lysis buffer; anti-Flag (M2) immunoprecipitation, blot with anti-SOCS5
Flag-tagged JAK3 (human) = Flag-tagged JAK3 (human) (UniProt P52333); assay: as above
Flag-tagged JAK2 (mouse) = Flag-tagged JAK2 (mouse) (UniProt Q62120); assay: as above
Flag-tagged TYK2 (mouse) = Flag-tagged TYK2 (mouse) (UniProt Q9R117); assay: as above

binding [1]: binds
binding (Flag-tagged JAK1 (mouse)): binds
binding (Flag-tagged JAK3 (human)): binds
binding (Flag-tagged JAK2 (mouse)): binds
binding (Flag-tagged TYK2 (mouse)): binds
B1: Myc-tagged SOCS5 (protein, UniProt O54928 1-536)
chain: MDKVGKMWNNLKYRCQNLFSHEGGSRNENVEMNPNRCPSVKEKSISLGEAAPQQESSPLRENVALQLGLSPSKTFSRRNQNCAAEIPQVVEISIEKDSDSGATPGTRLARRDSYSRHAPWGGKKKHSCSTKTQSSLDTEKKFGRTRSGLQRRERRYGVSSMQDMDSVSSRAVGSRSLRQRLQDTVGLCFPMRTYSKQSKPLFSNKRKIHLSELMLEKCPFPAGSDLAQKWHLIKQHTAPVSPHSTFFDTFDPSLVSTEDEEDRLRERRRLSIEEGVDPPPNAQIHTFEATAQVNPLYKLGPKLAPGMTEISGDGSAIPQTNCDSEEDSTTLCLQSRRQKQRQVSGDSHAHVSRQGAWKVHTQIDYIHCLVPDLLQITGNPCYWGVMDRYEAEALLEGKPEGTFLLRDSAQEDYLFSVSFRRYNRSLHARIEQWNHNFSFDAHDPCVFHSSTVTGLLEHYKDPSSCMFFEPLLTISLNRTFPFSLQYICRAVICRCTTYDGIDGLPLPSMLQDFLKEYHYKQKVRVRWLEREPVKAK
